Results on 40 compounds are retold here after the supplement of paper PMC7024190.

Where “and” joins values, the source holds several entries; their conditions need not be identical. Equal entries are not always repeated. Structures can show the parent of a compound that is named as a salt. Some of the results follow. This data set is noisy: repeats of one test often differ as much as different tests do.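 A first-round screen of about ten thousand compounds sought those raising reporter output, using human embryonic kidney cells briefly transfected with a plasmid carrying a Renilla luciferase gene driven by the HSV-TK promoter.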

For this assay, the system named is HEK 293FT. The experiment in a line: log relative Renilla luciferase luminescence (reporter expression vs reference, reference not stated) (log (base not stated)); higher = higher recombinant reporter expression. To be noted: 10 µM; time after transfection 48 h.
Regarding `CCCCC1=NC2(CCCC2)C(=O)N1Cc1ccc(-c2ccccc2-c2nnn[nH]2)cc1`, the log was -0.242. The figure for `CS(=O)(=O)c1ccc(-c2cc(Br)sc2-c2ccc(F)cc2)cc1` is 0.0608; for `CN(C)CC[C@@H](c1ccc(Cl)cc1)c1ccccn1` it is 0.159; for `c1ccc(-c2ccc(C(c3ccccc3)n3ccnc3)cc2)cc1` (stereo not given) it is -0.306. For `CN1CCN(CCCN2c3ccccc3Sc3ccc(Cl)cc32)CC1`, the log was -0.123. The figure for `CN(C)CCCC1(c2ccc(F)cc2)OCc2cc(C#N)ccc21` (stereo not given) [Citalopram hydrobromide] is -0.0971; for `CCOC(=O)OC(C)OC1=C(C(=O)Nc2ccccn2)N(C)S(=O)(=O)c2ccccc21` (stereo not given) it is 0.0965. Take `CC(COc1ccccc1Cc1ccccc1)N1CCCCC1` (stereo not given): the log was -0.0336. The value for `CCOC(=O)c1ccc(OC(=O)CCCCCNC(=N)N)cc1` was -0.089. Turning to `O=C1CCc2ccc(OCCCCN3CCN(c4cccc(Cl)c4Cl)CC3)cc2N1`, the log is -1.48. The figure for `COC(=O)Nc1nc2cc(C(=O)c3ccc(F)cc3)ccc2[nH]1` is 0.00632; for `CCN(CC)CC1CCCCN1CC(=O)N1c2ccccc2C(=O)Nc2cccnc21` (stereo not given) it is -0.274. The figure for `CC1(C)S[C@@H]2[C@H](/N=C/N3CCCCCC3)C(=O)N2[C@H]1C(=O)O` is 0.033; for `Clc1ccccc1CN1CCc2sccc2C1` it is -0.196. Regarding `COc1ccc(-c2cc(=O)c3c(OC)c(OC)c(OC)c(OC)c3o2)cc1OC` [Nobiletin], the log was -0.058.

As for `CN(CCCN1c2ccccc2CCc2ccccc21)CC(=O)c1ccc(Cl)cc1`, the log stood at 0.14. The figure for `CC(C(=O)O)c1ccc(-c2ccccc2)c(F)c1` (stereo not given) [Flurbiprofen] is 0.0989; for `Clc1cccc(Cl)c1NC1=NCCN1` it is -0.368; for `CC1(C)C[C@@H]1C(=O)N/C(=C\CCCCSC[C@H](N)C(=O)O)C(=O)O` it is -0.128. The value for `OCCOCCN1CCN(C2=Nc3ccccc3Sc3ccccc32)CC1` was -0.195; that for `CC[C@]1(O)C[C@H]2CN(CCc3c([nH]c4ccccc34)[C@@](C(=O)OC)(c3cc4c(cc3OC)N(C=O)[C@H]3[C@@](O)(C(=O)OC)[C@H](OC(C)=O)[C@]5(CC)C=CCN6CC[C@]43[C@@H]65)C2)C1` was -0.0272; that for `Nc1nc2ccc(Cl)cc2c2nc(-c3ccco3)nn12` was 0.211. The figure for `CNCC[C@@H](Oc1ccccc1C)c1ccccc1` is 0.0927; for `Cc1sc(N)c(C(=O)c2cccc(C(F)(F)F)c2)c1C` it is -0.0861. Turning to `CN(CCOc1ccc(CC2SC(=O)NC2=O)cc1)c1ccccn1` (stereo not given), the log was -0.153 and -0.0782. The value for `CS(=O)(=O)c1ccc(C2=C(c3ccccc3)C(=O)OC2)cc1` was 0.15; that for `CSc1nc2cc(Cl)c(Oc3cccc(Cl)c3Cl)cc2[nH]1` was -0.0704; that for `CCCN1CCCC[C@H]1C(=O)Nc1c(C)cccc1C` was 0.146.

In the case of `COc1c(N2C[C@@H]3CCCN[C@@H]3C2)c(F)cc2c(=O)c(C(=O)O)cn(C3CC3)c12`, the log was -0.12.

Regarding `CCN1CCCC1CNC(=O)c1cc(S(=O)(=O)CC)c(N)cc1OC` (stereo not given) [Amisulpride], the log is 0.258. The figure for `CNCC[C@H](Oc1cccc2ccccc12)c1cccs1` is 0.154. As to `C[C@@H](O)[C@H]1C(=O)N2C(C(=O)O)=C(S[C@@H]3CN[C@H](C(=O)N(C)C)C3)[C@H](C)[C@H]12`, the log was 0.103. With `CC=CC(=O)N(CC)c1ccccc1C`, the log came out at 0.311. For `COC(=O)C1=C(C)NC(C)=C(C(=O)OCC(C)C)C1c1ccccc1[N+](=O)[O-]` (stereo not given), the log came out at 0.019. The value for `COc1ccc(C2CNC(=O)C2)cc1OC1CCCC1` (stereo not given) was -0.101; that for `OCc1cc(C(O)CNCCCCCCOCCCCc2ccccc2)ccc1O` (stereo not given) [Salmeterol] was -0.0165.

As to `Cc1cn([C@H]2C=C[C@@H](CO)O2)c(=O)[nH]c1=O`, the log is -0.0116. The value for `COc1ccnc(C[S+]([O-])c2nc3cc(OC(F)F)ccc3[nH]2)c1OC` (stereo not given) was -0.0466; that for `CN1CCc2cc(Cl)c(O)cc2[C@@H](c2ccccc2)C1` was 0.073; that for `OCCN1C[C@H](O)[C@@H](O)[C@H](O)[C@H]1CO` was -0.058.
